# Data taken from article PMC7826247.
# No constants are given. Whether binding was seen depends on the method and setting. Binding seen in cells or lysates may run through a third protein. Binding can be weak; no strength is given. Where a sequence is shown, tags or fusion partners need not be part of it.
# B1: Gcr2-5Flag (protein, UniProt Q01722 1-534)
# chain: MHHQTKLDVFIIRAYNLLSNESVISGASLQSVTNSPQTTTNTPSGMVNGAVGTGIANPTGLMGSDSTPNIDEIITSTGSNALTKTNSDSANGTPNGNSSSTSAISNASNPATTGNNASSSATSNGIYTQAQYSQLFAKISKLYNATLSSGSIDDRSTSPKSAIELYQRFQQMIKELELSFDASPYAKYFRRLDGRLWQIKTDSELENDELWRLVSMSIFTVFDPQTGQILTQGRRKGNSLNTSTKGSPSDLQGINNGNNNGNNGNIGNGSNIKNYGNKNMPNNRTKKRGTRVAKNAKNGKNNKNSNKERNGITDTSAFSNTTISNPGTNMLFDPSLSQQLQKRLQTLSQDVNSRSLTGYYTQPTSPGSGGFEFGLSHADLNPNASSNTMGYNTMSNNGSHSWKRRSLGSLDVNTLDDEAVEELLQLTNTSKRQRPMTTAAEGALINDGPDTNLNANNTQMKVDLNPSNSMGPIDTEAVIRPLKEAYDAIISEKGQRIVQLERELELQRQETQWLRKMLIEDMGCVRSMLRDLQR
# Legend:
# [1] = target: Gcr1^U-TAP (S. cerevisiae); experiment: co-IP; in vivo TAP pull-down: 800 ug of yeast lysate protein (50 mM Tris-HCl pH 7.5, 150 mM NaCl, 2 mM MgCl2, 0.1% NP40) on IgG Sepharose for 1 h, three washes; Gcr2-5Flag detected by anti-Flag immunoblot, Gcr1-TAP by IgG
# [2] = target: Gcr1^S-TAP (S. cerevisiae); experiment: as above
binder,measurement,setting,value
B1,binding,[1],binds
same,binding,[2],binds
